Laboratory results taken from PMC11740094 (RSC Medicinal Chemistry, 2024).
Strings that start with PEPTIDE1 are HELM notation: dots part the residues, brackets hold end groups and non-standard residues.

How the values were obtained:
[1] = peptide synthesis; details: whole synthesis
[2] = general procedure: Fmoc solid-phase peptide synthesis; Rink amide AM, 2-chlorotrityl chloride, preloaded Fmoc-Ile-Wang and Fmoc-Lys(Boc)-Wang resins; HBTU/DIPEA; HATU/DIPEA for palmitic acid and fragment coupling; details: whole synthesis, scale of the general procedure 0.05 mmol (Rink amide), 0.1 mmol (2-chlorotrityl)

Row | Substance | final HPLC purity [1] | isolated yield [1] | isolated yield ([1]; TFA salt) | final HPLC purity ([2]; analytical RP-HPLC) | isolated yield [2]
1 | Ac-Ser-Arg-Pro-Arg-c[Azp -Asp-Asp-Leu-Glu-Pra]-Ahx-Lys(Fluorescein)-Ahx-Cys-Arg-Pro-Pro-Arg-NH2 | 95% | 1% |  |  | 
2 | H-RQPKIWFPNRRKPWKKRPRPDDLEI-OH | 95% |  | 17% |  | 
3 | PEPTIDE1{K.Q.I.E.I.K.K.F.K}$$$$V2.0 | 99% | 49% |  |  | 
4 | PEPTIDE1{S.A.P.R.P.D.D.L.E.I}$$$$V2.0 | 99% | 22% |  |  | 
5 | PEPTIDE1{S.R.A.R.A.D.D.L.E.I}$$$$V2.0 | >99% | 19% |  |  | 
6 | PEPTIDE1{S.R.A.R.P.D.D.L.E.I}$$$$V2.0 | 99% | 20% |  |  | 
7 | PEPTIDE1{S.R.P.A.P.D.D.L.E.I}$$$$V2.0 | 98% | 44% |  |  | 
8 | PEPTIDE1{S.R.P.R.A.D.D.L.E.I}$$$$V2.0 | >99% | 48% |  |  | 
9 | PEPTIDE1{S.R.P.R.P.A.D.L.E.I}$$$$V2.0 | >99% | 23% |  |  | 
10 | PEPTIDE1{S.R.P.R.P.D.A.L.E.I}$$$$V2.0 | >99% | 42% |  |  | 
11 | PEPTIDE1{S.R.P.R.P.D.D.L.A.I}$$$$V2.0 | 99% | 13% |  |  | 
12 | PEPTIDE1{S.R.P.R.P.D.D.L.E.I.[am]}$$$$V2.0 | 99% | 16% |  |  | 
13 | PEPTIDE1{S.R.P.R.P.D.D.L.E.I}$$$$V2.0 | >99% | 55% |  |  | 
14 | PEPTIDE1{S.R.P.T.E.K.T.I.F.I.I}$$$$V2.0 | >99% | 49% |  |  | 
15 | PEPTIDE1{Y.G.R.K.K.R.R.Q.R.R.R.K.Q.I.E.I.K.K.F.K}$$$$V2.0 |  |  |  | >99% | 34%
16 | PEPTIDE1{[KeP].S.R.P.R.P.D.D.L.E.I}$$$$V2.0 | 98% | 11% |  |  | 
17 | PEPTIDE1{[KeP].S.R.P.R.[AzpT].D.D.L.E.[PraT].[am]}$PEPTIDE1,PEPTIDE1,6:R3-11:R3$$$V2.0 | 98% | 4% |  |  | 
18 | PEPTIDE1{[KeP].[AEEA].S.R.P.R.P.D.D.L.E.I}$$$$V2.0 | 98% | 6% |  |  | 
19 | PEPTIDE1{[ac].S.R.P.R.P.D.D.L.E.I}$$$$V2.0 | >99% | 77% |  |  | 
20 | PEPTIDE1{[ac].S.R.P.R.[AzpT].D.D.L.E.[PraT].[am]}$PEPTIDE1,PEPTIDE1,6:R3-11:R3$$$V2.0 | 99% | 14% |  |  | 
21 | PEPTIDE1{[ac].S.R.P.R.[AzpT].D.D.[PraT].E.I.[am]}$PEPTIDE1,PEPTIDE1,6:R3-9:R3$$$V2.0 | >99% | 9% |  |  | 
22 | PEPTIDE1{[ac].S.R.P.R.[PraT].D.D.L.E.[AzkT].[am]}$PEPTIDE1,PEPTIDE1,6:R3-11:R3$$$V2.0 | >99% | 9% |  |  | 
23 | PEPTIDE1{[ac].[PraT].R.P.R.[AzkT].D.D.L.E.I.[am]}$PEPTIDE1,PEPTIDE1,2:R3-6:R3$$$V2.0 | 95% | 4% |  |  | 
24 | PEPTIDE1{[palm].K.Q.I.E.I.K.K.F.K}$$$$V2.0 | >99% | 31% |  |  | 
25 | PEPTIDE1{[palm].K.S.R.P.R.P.D.D.L.E.I}$$$$V2.0 | 98% | 24% |  |  | 
26 | PEPTIDE1{[palm].S.R.P.R.P.D.D.L.E.I}$$$$V2.0 | 99% | 26% |  |  | 
27 | Palm-εLys-Ser-Arg-Pro-Arg-c[Azp -Asp-Asp-Leu-Glu-Pra]-Ahx-Lys(Fluorescein)-Ahx-Cys-Arg-Pro-Pro-Arg-NH2 | 95% | 2% |  |  | 
28 | Palm-εLys-Ser-Arg-Pro-Arg-c[Azp -Asp-Asp-Leu-Glu-Pra]-Ahx-Lys(Fluorescein)-NH2 | 96% | 2% |  |  | 
